Experimental data: PubChem BioAssay AID686937 (Drosophila RNAi Screening Center, 2013)

Purpose: 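Knock-downs that reduce output of a secreted reporter enzyme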 (primary screen)
Cell system: Drosophila S2 cells expressing secreted horseradish peroxidase
Knock-down reagent: long dsRNA against Drosophila genes
Timing: about 5.5 days (5 days dsRNA, then 12 h reporter induction)
Conditions: reporter expression induced after 5 days of dsRNA, read 12 h later; inducer not stated
Measured: 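After 5 days of dsRNA and 12 h of reporter induction, medium peroxidase read by chemiluminescence and scored as per-plate z-score; higher values mean more reporter released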
Direction: z-score: higher = more reporter secreted into medium
The screen tested about 23,000 reagents; below is a random part of those that have a named target and a result. 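Reduced-secretion tags in replicate 1 do not always agree with the z-scores; no criterion for assigning the tags was given.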 Names joined by + are all predicted targets of the reagent. Further read-outs or replicates are left out here. No sequences are given here. Not given: the amount of reagent.

The first 4 records as a preview:
no.	target gene	PubChem SID	z-score, replicate 1	z-score, replicate 2
1	Gasz	SID104186621	0.39	0.44
2	CG5381	SID104182644	0.61	0.27
3	Targ2	SID104201580	0.48	-0.06
4	tst	SID104194004	0.35	0.38

Results, from the first entry:
no.	target gene	PubChem SID	z-score, replicate 1	z-score, replicate 2
1	Gasz	SID104186621	0.39	0.44
2	CG5381	SID104182644	0.61	0.27
3	Targ2	SID104201580	0.48	-0.06
4	tst	SID104194004	0.35	0.38
5	CG9427	SID104196282	0.53	0.52
6	CG31287	SID104192930	0.38	0.46
7	CG13912	SID104188173	0.29	0.3
8	Snr1	SID104192161	-0.98	-1.42
9	Nup35	SID104199791	0.1	0.13
10	Ack-like	SID104187292	0.24	0.33
11	Ack-like	SID104201492	0.83	0.06
12	MED31	SID104191934	-0.51	-0.67
13	inaF-A	SID104199452	0.11	-0.49
14	CG2145	SID104199627	0.15	0.08
15	glob3	SID104192053	0.55	0.71
16	CG13630	SID104194423	0.44	0.47
17	fh	SID104198222	0.48	0.07
18	Prosbeta4R2	SID104180295	0.29	0.43
19	onecut	SID104196967	0.48	0.28
20	CG32278 + CG14963	SID104201739	-0.18	0.21
21	CG9631	SID104193929	0.33	0.37
22	AP-2mu	SID104193882	0.32	0.39
23	SCOT	SID104187978	0.28	0.29
24	CG3638	SID104198325	0.63	0.56
25	RagC-D	SID104187031	-1.33	-0.62
26	Ir25a	SID104180254	-0.19	0.14
27	CG43271	SID104181406	0.34	-0.28
28	CG43271	SID104201411	-0.43	0.32
29	Best2	SID104189504	0.06	0.33
30	CG34148 + P5CDh2	SID104193311	0.51	0.41
31	l(1)G0196	SID104200383	0.31	0.37
32	l(1)G0196	SID104200421	0.47	0.3
33	Tom20	SID104190691	0.19	0.24
34	LUBEL	SID104181933	0.25	0.29
35	CG4116	SID104198140	0.35	0.43
36	veli	SID104196068	0.12	0.28
37	snky	SID104189630	0.4	0.27
38	CG1724	SID104200340	0.01	0.23
39	Pp1-Y2	SID104201310	-0.31	-0.38
40	Him	SID104199430	-0.08	-0.05
41	Gr93b	SID104201639	-0.19	0.15
42	Ntf-2r	SID104181811	-1.7	-1.25
43	CG14450	SID104191499	0.49	0.3
44	Pcif1	SID104191447	0.27	0.03
45	Nmdar2	SID104197975	0.46	0.35
46	Nmdar2	SID104198303	0.24	0.37
47	Nmdar2	SID104198361	0.15	0.31
48	Cip4	SID104187883	-0.13	0.52
49	Cip4	SID104188261	-1.05	-0.94
50	Cip4	SID104201410	-0.79	0.47
51	CG9672	SID104199993	0.37	0.34
52	CG17234	SID104180282	0.17	0.18
53	CG13360	SID104198328	0.17	0.61
54	CG12935	SID104186040	-0.07	0.16
55	Gprk2	SID104196474	0.26	0.01
56	lds	SID104196780	0.15	0.09
57	bun	SID104181045	-0.02	-0.28
58	bun	SID104181047	-0.13	0.1
59	bun	SID104183292	-5.66	-3.48
60	CG9130 + CG9133	SID104188416	-0.24	0.51
61	CG9130 + CG9133	SID104188417	-1.6	-0.5
62	CG9130 + CG9133	SID104201599	-0.53	-0.17
63	CG8952	SID104199925	0.11	0.21
64	CG1690	SID104186428	0.05	0.45
65	CG32547	SID104199055	-0.01	0.06
66	CG32547	SID104199057	-0.13	0.29
67	CG32547	SID104199266	0.37	0.64
68	CG32547	SID104199418	0.23	0.3
69	pkm	SID104199466	0.02	0.25
70	Clic	SID104199156	0.11	0.41
71	CG5280	SID104190290	0.47	0.39
72	CG5280	SID104202194	1.35	0.8
73	Cog7	SID104196123	0.16	0.26
74	CG15615	SID104186360	0.3	0.41
75	CG14502	SID104186265	0.07	0.29
76	Hs3st-A	SID104186299	0.19	0.21
77	Hs3st-A	SID104186300	0.42	0.38
78	Hs3st-A	SID104186301	0.34	0.09
79	CG5323	SID104186721	0.11	-0.15
80	nac	SID104196312	-1.45	-0.22
81	st	SID104191191	0.34	0.5
82	kat80	SID104200136	0.38	0.11
83	kat80	SID104200137	0.3	0.42
